Measurements published in PMC10688045.
No constants are given. Whether binding was seen depends on the method and setting. Binding seen in cells or lysates may run through a third protein. Some results given as binding are weak or reduced against the parent protein; the word gives no strength.

Amino acid sequences for entries named in this document (tags omitted).
UniProt P10608: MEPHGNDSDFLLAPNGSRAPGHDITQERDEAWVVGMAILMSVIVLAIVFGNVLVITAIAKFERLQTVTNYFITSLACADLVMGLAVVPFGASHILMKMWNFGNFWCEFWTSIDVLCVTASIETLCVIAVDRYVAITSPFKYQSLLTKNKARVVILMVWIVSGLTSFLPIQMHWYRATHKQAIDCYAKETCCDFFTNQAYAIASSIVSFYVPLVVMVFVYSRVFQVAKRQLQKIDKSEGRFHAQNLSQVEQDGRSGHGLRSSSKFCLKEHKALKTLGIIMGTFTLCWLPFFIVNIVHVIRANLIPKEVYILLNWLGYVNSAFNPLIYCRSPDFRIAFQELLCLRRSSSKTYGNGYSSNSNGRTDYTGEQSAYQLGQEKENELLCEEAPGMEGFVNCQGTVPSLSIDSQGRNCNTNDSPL
UniProt P63095: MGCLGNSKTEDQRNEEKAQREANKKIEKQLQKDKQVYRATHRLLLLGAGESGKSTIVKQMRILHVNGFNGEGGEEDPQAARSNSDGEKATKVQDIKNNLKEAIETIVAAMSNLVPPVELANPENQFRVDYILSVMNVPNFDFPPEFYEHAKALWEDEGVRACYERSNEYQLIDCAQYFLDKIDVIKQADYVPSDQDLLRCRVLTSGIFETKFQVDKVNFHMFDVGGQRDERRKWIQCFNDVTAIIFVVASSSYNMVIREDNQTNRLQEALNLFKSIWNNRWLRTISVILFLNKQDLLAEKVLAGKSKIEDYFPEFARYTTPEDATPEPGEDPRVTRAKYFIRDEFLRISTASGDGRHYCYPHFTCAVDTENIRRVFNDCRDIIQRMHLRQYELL

Biological target: β2 adrenergic receptor (rat (endogenous in primary FLSs)) (UniProt P10608)
Test: co-IP; lysates (NP40 immunoprecipitation buffer) of primary rat FLSs; anti-β2AR antibody on Protein A/G agarose beads overnight at 4 °C; Gαs, Gαi and β2AR detected by Western blot; cells were normal or CIA FLSs, or normal FLSs treated with ISO, ISO + CP-25, or βarr2 siRNA + ISO

Gαs (from UniProt P63095 1-394)
binding: binds
